This passage reports activity change results from PubChem BioAssay AID977622 (Broad Institute, 2014).

This is one part of the list. These are further read-outs of the screen, such as a control signal, another cell line or another target. No call is given for them.

Assay [1] in a line: wild-type E. coli growth inhibition versus h38 humanized strain – h38 mutant RFP, wild-type GFP, cherry-pick, dose response (AID 977622). The conditions noted are these: E. coli mixed culture, 24 h, total growth OD600 at 50 uM.
The test system of assay [2] is E. coli h38 humanized mutant ribosome RFP fluorescence, mixed culture, 24 h. The description is as above. The conditions noted are these: h38 mutant RFP at 50 uM.

For `COCc1nnc(NC(=O)c2ccc(S(=O)(=O)N3CCCC3)cc2)o1`, the activity change is -13.7% in assay [1] and 9.94% in assay [2].
Regarding `Cc1cccc(N2CCN(Cc3nc(-c4ccc(F)cc4F)oc3C)CC2)n1`, the activity change in assay [1] was -15.6%.
As for `CN1CCN(C(=O)C[C@@H]2CC[C@H]3[C@@H](COC[C@H](O)CN3C(=O)Nc3ccc(Cl)cc3)O2)CC1`, the activity change was -79.1% in assay [1] and 0.446% in assay [2].
For the compound `CC1Sc2ccc(S(=O)(=O)NCc3ccccc3)cc2NC1=O` (stereo not given), the activity change in assay [1] was -26.7%.
`C[C@H](CO)N1C[C@H](C)[C@H](CN(C)C(=O)CCCN(C)C)OCCCC[C@H](C)Oc2ccc(NC(=O)Nc3cccc4ccccc34)cc2C1=O`: the values for the activity change in assay [1] and in assay [2] were 1.4% and 26.2%, respectively.
In the case of `Cc1cccc(NC(=O)c2c(C)nn(-c3ccccc3)c2Cl)c1`, in assay [1], the activity change was -35.6%.
On the same count and under the same terms, for `NS(=O)(=O)c1cccc(NC(=O)CSc2nc3ccc(Cl)cc3[nH]2)c1` the value was -53.8%.
Take `COc1ccc(-c2cc(C(=O)N(C)CCc3ccc(OC)c(OC)c3)c3ccccc3n2)cc1`: in assay [1], the activity change was -29.6%.
For `COC(=O)c1cc2c(c3c4cc(F)ccc4n(S(=O)(=O)c4ccccc4)c13)C(=O)N(Cc1ccco1)C2`, the activity change in assay [1] is -16.9%; in assay [2], 6.04%.
Take `O=C(NCCc1ccc(O)cc1)c1[nH]c(C(F)(F)F)nc1-c1ccccc1`: the activity change is -15.1% in assay [1] and -2.42% in assay [2].
With `O=C(Nc1cccc(Cl)c1)N1C[C@@H]2[C@H](c3ccccc31)[C@H](CO)N2Cc1ccncc1`, the activity change in assay [1] was -14.8%; in assay [2], -0.299%.
The matching figures for `CC(OC(=O)CCc1nc2ccccc2c(=O)[nH]1)C(=O)c1ccc(Br)cc1` (stereo not given): -18% and -9.52%.
As to `COc1ccc(-c2n[nH]c3c2CN(C(=O)c2ccc(F)cc2)CC3)cc1`, the activity change is -36.3% in assay [1] and -20.8% in assay [2].
The matching figures for `NS(=O)(=O)c1ccc(Nc2c([N+](=O)[O-])cncc2[N+](=O)[O-])cc1`: -11.1% and 11.2%.
`CC(C)NC(=O)N(C)C[C@H]1OCCCC[C@@H](C)Oc2ccc(NC(=O)c3ccccc3)cc2C(=O)N([C@@H](C)CO)C[C@H]1C`: the figures for the activity change in assay [1] and in assay [2] were -3.26% and 12.4%, respectively.
Turning to `CSc1c(-c2ccccn2)c(N)nn1C(=O)C1CC1`, in assay [1], the activity change is -40.7%.
`Cc1ccc(-c2nnc(N3CCN(C(=O)COc4cccc(C)c4)CC3)c3ccccc23)cc1`: the figures for the activity change in assay [1] and in assay [2] were -30.3% and -36.4%, respectively.
The matching figures for `CN(c1ccccc1)S(=O)(=O)c1cccc(NC(=O)CCNC(=O)c2ccc([N+](=O)[O-])cc2)c1`: -3.04% and -10.7%.
`O=C1N[C@@H](Cc2ccccc2)COC(=O)[C@H](Cc2ccc(F)cc2)C/C=C\C[C@H]1CC(=O)N(CCO)Cc1ccccc1`: the activity change in assay [1] is -32%; in assay [2] it was 36.3%.
As for `Cc1ccccc1-c1cc(C(=O)NCc2cccs2)n(CC2CC(c3cccnc3)=NO2)n1` (stereo not given), the activity change in assay [1] was -27.4%; in assay [2] it was -11.6%.
In the case of `Cc1cc(F)ccc1-c1cc(C(=O)NCC2CCCCC2)[nH]n1`, the activity change in assay [1] is -54.7%; in assay [2] it was -38.3%.
For `O=C1Nc2ccc(F)cc2C12Nc1ccccc1-c1nnc(SCc3ccccc3)nc1O2` (stereo not given), the activity change is -10.9% in assay [1] and -8.34% in assay [2].
With `COc1ccc(OC)c(NC(=O)COC(=O)C2CCN(C(=O)c3ccc(Cl)cc3)CC2)c1`, the results for the activity change in assay [1] and in assay [2] were -18.1% and -16%, respectively.
Take `C=CCNC(=O)c1ccccc1NC(=O)c1ccc(Cl)c(S(=O)(=O)Nc2cccc(C)c2C)c1`: the results for the activity change in assay [1] and in assay [2] were -84.4% and -55.5%, respectively.
Consider `O=C(CN1CC[n+]2c(-c3cccs3)csc21)c1ccc(-c2ccccc2)cc1`, for which the values for the activity change in assay [1] and in assay [2] were -48.5% and 5.26%, respectively.
As to `Cc1nnc2sc(SCC(=O)Nc3ccc(Br)cc3)nn2c1=O`, the activity change was -28.3% in assay [1] and -9.41% in assay [2].
For `CN(C)c1ccc(-c2nnn(Cc3ccccc3Br)n2)cc1` the same measures were -46% and 1.11%.
For `C=CCn1c(C)cc(C(=O)COC(=O)CNC(=O)c2ccccc2)c1C` the same measures were -52.8% and 7.47%.
With `O=C1CN(C(=O)c2ccc(Cl)c(S(=O)(=O)N3CCc4ccccc43)c2)c2ccccc2N1`, the activity change in assay [1] was -39.9%; in assay [2], -11.1%.
With `COc1ccc(OC)c(C(=O)COC(=O)c2ccc([N+](=O)[O-])o2)c1`, the figures for the activity change in assay [1] and in assay [2] were -23.6% and -3.47%, respectively.
For the compound `Cc1cccc(C)c1NC(=O)CNC(=O)C(C)N1CCN(c2cccc(Cl)c2)CC1` (stereo not given), the activity change in assay [1] was -27%.
Regarding `Cc1cccc(NC(=O)CN(C)S(=O)(=O)c2cccs2)c1`, the activity change in assay [1] is -4.33%; in assay [2] it was -12.4%.
On to `COc1ccc(C#Cc2ccc3c(c2)[C@@H]2[C@@H](CCN2Cc2nccs2)[C@@H](CO)N3)cc1`, for which the activity change was -31.9% in assay [1] and 23.3% in assay [2].
The matching figures for `O=C(NCc1cccnc1)C1CCN(S(=O)(=O)c2cc([N+](=O)[O-])ccc2Cl)CC1`: -8.66% and 9.4%.
On to `O=C(c1ccco1)c1nnn(Cc2ccccc2)c1-c1ccccc1`, for which the activity change in assay [1] was -49.4%.
For the compound `NS(=O)(=O)c1cccc(NC(=O)COc2ncnc3c2cnn3-c2ccccc2)c1`, the activity change in assay [1] is -10.8%; in assay [2] it was -13.1%.
For `COc1cccc(S(=O)(=O)N2CCCCN3[C@H](CO)[C@H](c4ccc(C#CC(C)C)cc4)[C@H]3C2)c1` the same measures were -95.8% and -64.4%.
`COc1ccc(OCC(=O)N2c3ccccc3CC2C)c([N+](=O)[O-])c1` (stereo not given): the activity change in assay [1] is -22.7%; in assay [2] it was -18%.
As to `NS(=O)(=O)c1cccc(NC(=O)c2cccc(-c3ccc(O)cc3)c2)c1`, in assay [1], the activity change was -48.9%.
For `C[C@@H]1CCCCO[C@@H](CN(C)C)[C@H](C)CN([C@@H](C)CO)C(=O)c2cc(NC(=O)Nc3cccc4ccccc34)ccc2O1`, the figures for the activity change in assay [1] and in assay [2] were -11% and -3.92%, respectively.
Regarding `Cc1ccc(NCCCn2cnc3c(OCc4ccccc4)ncnc32)cc1C`, the results for the activity change in assay [1] and in assay [2] were -20.5% and -2.44%, respectively.
As to `Cc1ccc(C(=O)Nc2ccc3ncccc3c2)cc1`, the activity change was -14.2% in assay [1] and -7.12% in assay [2].
